Only a part is listed here, and it is no random draw. At the low end of the ranking the order means little.

Chains of the proteins cited; added tags and fusions are not shown. Lines headed by an entry give the natural chain unless they say otherwise; changes in a name come on top.
UniProt Q9Y603: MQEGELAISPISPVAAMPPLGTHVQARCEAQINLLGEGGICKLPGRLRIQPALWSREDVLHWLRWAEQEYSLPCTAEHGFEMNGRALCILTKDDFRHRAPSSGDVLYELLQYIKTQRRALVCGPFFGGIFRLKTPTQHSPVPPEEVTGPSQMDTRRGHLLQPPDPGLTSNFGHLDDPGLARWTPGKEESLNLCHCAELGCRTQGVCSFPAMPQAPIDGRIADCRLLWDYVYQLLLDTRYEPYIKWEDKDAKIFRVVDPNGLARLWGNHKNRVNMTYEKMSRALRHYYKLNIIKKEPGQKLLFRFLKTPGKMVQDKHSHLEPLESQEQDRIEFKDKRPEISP

These results are taken from article PMC7862700.

The assay concerns the target ETV7 (UniProt Q9Y603). In words: DAPPL (digital affinity profiling via proximity ligation, sequencing). The conditions noted are these: 10 mM Tris-HCl pH 7.5, 50 mM NaCl, 1 mM DTT, 4% glycerol, room temperature, 30 min; GST-TFs on glutathione beads, 16-mer random dsDNA library, 0.1% …; high values mean tight binding; double strand, one strand shown; scale: fold enrichment (6-mer frequency, TF over GST control).
CCGGTC: the binding signal stood at 1.22. Consider TTATCT, for which the binding signal came to 1.15. As for TCGATG, the figure is 1.17; as for TGAGCT, 0.962; as for CGTAAA, 1.08. With TTCTAT the figure was 1.33; with TATTTG, 1.52.

For the sequence TTCCCG, the binding signal is 1.88. As for CCGCCG, the figure is 1.2; as for ATGAAC, 1.2. With TGACTA the figure was 1.07. Consider TGTCCT, for which the binding signal worked out at 1.4. With TATCAC the figure was 1.14. Regarding CTCCAC, the binding signal was determined as 1.39. With TGCATA the figure was 1.23; with CCGAAA, 1.24. Sequence CAGATT came in with a binding signal of 0.993. With CCCTCT the figure was 1.27; with TTTGAT, 1.28; with CTATGG, 1.39. With TAGCTT the figure was 1.16. With CATGCC, the binding signal was 0.967. As for CTCACG, the figure is 1.25; as for CTCGAA, 1.19; as for TAGCGA, 0.953.

Sequence ACTCCG registered a binding signal of 1.4. In turn, GCCGCT gave a binding signal of 1.05.

On to TTTAAC, for which the binding signal is 1.07. In the case of GCTAGC, the binding signal is 1.24. With AATCAC the figure was 1.02; with ATACTT, 1.69.

CACTTT registered a binding signal of 1.26. With TCTGGA the figure was 1; with CTATAG, 0.988.

With GTTAAT, the binding signal is 1.07.

On to TTGCTG, for which the binding signal is 1.37. With GTCCCC the figure was 1.27. In turn, TCACCC returned a binding signal of 1.04. CCCCGA: the binding signal was 1.06. CTACAG displayed a binding signal of 0.927.
